# Test results from PubChem BioAssay (Tox21).
# Protein sequences, listed by entry. Tags and fused reporters are not part of them. Lines headed by an entry give the natural chain unless they say otherwise; changes in a name come on top.
# UniProt P30968: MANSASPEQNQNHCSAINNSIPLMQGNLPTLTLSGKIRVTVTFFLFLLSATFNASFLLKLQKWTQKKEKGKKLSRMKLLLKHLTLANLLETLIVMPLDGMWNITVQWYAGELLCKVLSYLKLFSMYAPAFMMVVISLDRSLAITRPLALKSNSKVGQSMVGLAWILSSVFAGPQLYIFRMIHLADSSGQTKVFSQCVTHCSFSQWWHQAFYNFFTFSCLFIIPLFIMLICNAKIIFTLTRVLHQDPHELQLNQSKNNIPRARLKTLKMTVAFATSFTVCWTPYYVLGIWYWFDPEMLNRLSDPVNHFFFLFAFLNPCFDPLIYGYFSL
# UniProt P14416, whole entry, looked up: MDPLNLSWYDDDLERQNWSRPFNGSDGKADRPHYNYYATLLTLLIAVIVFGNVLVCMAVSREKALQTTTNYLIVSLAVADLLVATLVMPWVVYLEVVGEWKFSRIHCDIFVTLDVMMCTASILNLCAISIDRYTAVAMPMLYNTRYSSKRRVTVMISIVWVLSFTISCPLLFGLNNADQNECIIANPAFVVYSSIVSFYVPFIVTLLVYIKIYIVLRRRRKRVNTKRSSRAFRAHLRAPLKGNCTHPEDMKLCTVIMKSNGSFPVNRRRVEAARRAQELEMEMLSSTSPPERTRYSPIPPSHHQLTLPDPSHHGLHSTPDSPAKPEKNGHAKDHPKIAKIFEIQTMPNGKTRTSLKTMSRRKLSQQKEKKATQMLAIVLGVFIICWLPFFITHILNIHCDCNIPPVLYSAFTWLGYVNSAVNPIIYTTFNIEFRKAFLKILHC
# UniProt P28223, whole entry, looked up: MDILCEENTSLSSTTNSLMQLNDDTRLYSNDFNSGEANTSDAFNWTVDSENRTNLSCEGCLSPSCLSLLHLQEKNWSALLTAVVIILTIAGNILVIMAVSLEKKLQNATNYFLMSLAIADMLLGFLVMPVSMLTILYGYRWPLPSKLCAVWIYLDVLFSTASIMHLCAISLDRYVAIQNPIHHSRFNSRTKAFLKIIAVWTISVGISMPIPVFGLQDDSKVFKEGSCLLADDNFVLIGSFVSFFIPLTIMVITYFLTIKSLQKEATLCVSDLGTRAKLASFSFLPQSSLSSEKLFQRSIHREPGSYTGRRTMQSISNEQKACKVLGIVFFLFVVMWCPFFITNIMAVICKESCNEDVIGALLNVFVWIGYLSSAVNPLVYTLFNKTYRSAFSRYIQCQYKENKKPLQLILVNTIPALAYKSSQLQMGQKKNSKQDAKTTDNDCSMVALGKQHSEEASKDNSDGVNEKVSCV
# Several values for one entry are separate records, joined by “and”; a condition that tells them apart may be missing. Identical values can stand only once. Inconclusive means that the source gave no clear call. Such entries were picked first, then a sample of the others. For some of these results: A potency beside an inconclusive call is a rough fit, not a confirmed value. The source holds several records for some structures; these can differ, active in one and inactive in another. Activity calls are given as the source filed them. Unless noted, the call rests on the fitted dose curve.
# Experiments:
# [1] = Nuclear factor erythroid 2-related factor 2/antioxidant responsive element (Nrf2/ARE) small molecule agonists: luciferase reporter gene qHTS assay in human keratinocytes (AID 1919969); further: potency means the concentration at half of the fitted maximal effect; nearly all actives have a fitted effect of over 35% in size
# [2] = target: Gonadotropin-releasing hormone receptor (Homo sapiens) (UniProt P30968); assay: Human gonadotropin-releasing hormone receptor (GnRHR) small molecule agonists, calcium flux assay in GnRHR-HEK293 cells (AID 1920063); details: calcium flux fluorescence, agonist mode; activity change: at 57.6 µM (top of the series), hits give high values unless noted; further: on the % scale 0 is the no-effect control and ±100 the full control effect; nearly all actives have a fitted effect of over 35% in size
# Summary of the method: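 Agonist activity was measured as intracellular calcium flux in HEK293 cells engineered to stably express human GnRHR. After dye loading for 1 hour at 37 C, compounds in DMSO were added and fluorescence was followed for 3 minutes.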
# [3] = p53 small molecule agonists, cell-based qHTS assay: qHTS cell viability counter screen (AID 1963581); further: potency means the concentration at half of the fitted maximal effect; nearly all actives have a fitted effect of over 45% in size
# Summary of the method: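 Viability was counter-screened in parallel with the p53 agonist reporter by measuring intracellular ATP luminescence in the same HCT-116 p53RE-bla wells after 16 h compound treatment at 37 C.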
# [4] = cAMP Responsive Elements (CRE) small molecule agonists, cell-based qHTS assay (AID 1963590); details: CRE-bla HEK293T, beta-lactamase FRET ratio, 3 h; activation: at 92.4 µM (top of the series) unless noted; further: potency means the concentration at half of the fitted maximal effect
# Summary of the method: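 Cells carrying a CRE-driven beta-lactamase reporter (HEK 293T) are seeded, incubated overnight (18 h), and treated with test compounds for 3 h at 37 C; reporter activity is then detected with a FRET substrate after 2 h at room temperature.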
# [5] = cAMP Responsive Elements (CRE) small molecule antagonists, cell-based qHTS assay (AID 1963591; active means well fitted inhibition curve with a large enough effect in the signal ratio in the repeat runs, not every such curve was filed as active; inconclusive means weak or mixed curves, or effect the other way; the % refers to the signal ratio; further: potency means the concentration at half of the fitted maximal effect; on activity change, negative = inhibition: on the % scale 0 is the no-effect control and ±100 the full control effect); details: CRE-bla HEK293T, beta-lactamase FRET ratio; activity change, negative = inhibition: at 92.4 µM (top of the series) unless noted
# Summary of the method: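 Cells (CRE-bla HEK 293T, DMEM with 10% dialyzed FBS and 25 mM HEPES) are seeded and incubated 18 h. Compounds are added with NKH477 agonist at 0.25 uM final for 3 h, then FRET substrate for 2 h.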
# [6] = target: Beta-2 adrenergic receptor (Homo sapiens) (UniProt P07550); assay: Adrenergic beta2 receptor (ADRB2) small molecule agonists, cell-based qHTS assay (AID 1963593); details: CHO-ADRB2 cells, cAMP HTRF, 30 min; activation: at 92.4 µM (top of the series) unless noted; further: potency means the concentration at half of the fitted maximal effect;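 on activation: CHO cells stably overexpressing human ADRB2; on the % scale 0 is the no-effect control and ±100 the full control effect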
# Summary of the method: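 CHO cells stably over-expressing ADRB2 were plated overnight at 37C, then dosed with compounds plus a stimulation mix containing 100uM IBMX and 25uM Ro-20-1724 for 0.5hr at room temperature. cAMP was measured by HTRF competition, 1hr.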
# [7] = target: D(2) dopamine receptor (Homo sapiens) (UniProt P14416); assay: Dopamine D2 receptor (DRD2) small molecule antagonists, cell-based qHTS assay (AID 1963595; active means well fitted inhibition curve with a large enough effect in the signal ratio in the repeat runs, with a control signal flat; inconclusive means weak or mixed curves, or effect the other way; the % refers to the signal ratio; further: on the % scale 0 is the no-effect control and ±100 the full control effect); details: HEK293-DRD2 cAMP HTRF antagonist mode; activity change, negative = inhibition: at 92.4 µM (top of the series) unless noted
# Summary of the method: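 Stable D2 receptor HEK293 line, 24 h after seeding. Compound preincubated 10 min, then quinpirole (12 nM) with forskolin analogue NKH477 (200 nM), 30 min, room temperature. Detection by time-resolved FRET of cAMP.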
# [8] = p53 small molecule agonists, cell-based qHTS assay with human liver microsomes (AID 1963577); details: HCT-116 p53RE-bla with human liver microsomes, ratio, 16 h; activation: at 66 µM (top of the series) unless noted; further: potency means the concentration at half of the fitted maximal effect
# Summary of the method: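 Reporter activation was measured by LiveBLAzer fluorescence intensity in p53RE-bla cells, which had been exposed to compounds for 16 h at 37 C alongside 0.5 mg/mL human liver microsomes and 0.5 mg/mL NADPH (final concentrations).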
# [9] = p53 small molecule agonists, cell-based qHTS assay with human liver microsomes: qHTS cell viability counter screen (AID 1963579); further: nearly all actives have a fitted effect of over 45% in size; further: potency means the concentration at half of the fitted maximal effect
# Summary of the method: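 HLM-supplemented (0.5 mg/mL final) and NADPH-supplemented (0.5 mg/mL final) p53RE-bla cultures, 4,000 cells per well, were dosed with compounds in DMSO for 16 h at 37 C; luminescent ATP detection (CellTiter-Glo, 30 min, room temperature) quantified surviving cells.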
# [10] = target: Beta-2 adrenergic receptor (Homo sapiens) (UniProt P07550); assay: Adrenergic beta2 receptor (ADRB2) small molecule antagonists, cell-based qHTS assay (AID 1963592); details: CHO-ADRB2 cells, isoproterenol-stimulated cAMP HTRF ratio, 0.5 h; activity change, negative = inhibition: at 92.4 µM (top of the series) unless noted; further: on the % scale 0 is the no-effect control and ±100 the full control effect; nearly all actives have a fitted effect of over 50% in size
# Summary of the method: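 Assay format: CHO-ADRB2 cells, 18-20hr seeding at 37C/5% CO2, then compound plus 1nM isoproterenol agonist mix for 0.5hr RT. Homogeneous time-resolved fluorescence cAMP detection after 1hr, expressed as 665/615 nm ratio.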
# [11] = target: D(2) dopamine receptor (Homo sapiens) (UniProt P14416); assay: Dopamine D2 receptor (DRD2) small molecule agonists, cell-based qHTS assay (AID 1963594); details: HEK293-DRD2 cAMP HTRF, agonist mode, 30 min; activation: at 92.4 µM (top of the series) unless noted; further: nearly all actives have a fitted effect of over 35% in size; further: potency means the concentration at half of the fitted maximal effect; on activation: on the % scale 0 is the no-effect control and ±100 the full control effect
# Summary of the method: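 cAMP accumulation in DRD2-HEK293 cells measured by HTRF after 1 h detection; compounds added 10 min before NKH477 (200nM […]) forskolin-analogue stimulation, 30 min at room temperature, with Ro20-1724 present at 0.1 mM final.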
# [12] = Nuclear factor erythroid 2-related factor 2/antioxidant responsive element (Nrf2/ARE) small molecule agonists: qHTS cell viability counter screen in human keratinocytes (AID 1919968; active means well fitted cell-killing curve with a large enough effect in the repeat runs; inconclusive means weak or mixed curves, or effect the other way; further: on the % scale 0 is the no-effect control and ±100 the full control effect; nearly all actives have a fitted effect of over 55% in size)
# Summary of the method: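 Cytotoxicity was multiplexed with the Nrf2/ARE luciferase assay in the same wells. Stably transfected HaCaT keratinocytes were treated with test compounds for 23 h at 37 C. Cell viability was then measured by CellTiter-Fluor fluorescence.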
# [13] = p53 small molecule agonists, cell-based qHTS assay with rat liver microsomes (AID 1963578); details: HCT-116 p53RE-bla, beta-lactamase ratio, 16 h; activation: at 66 µM (top of the series) unless noted; further: potency means the concentration at half of the fitted maximal effect
# Summary of the method: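 Compound in DMSO added to p53RE-bla cells 5 h post-plating; rat microsomes/NADPH 0.5 mg/mL final; 16 h, 37 C; LiveBLAzer 2 h RT.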
# [14] = p53 small molecule agonists, cell-based qHTS assay (AID 1963582; active means well fitted activation curve with a large enough effect in the signal ratio in the repeat runs, not every such curve was filed as active; inconclusive means weak or mixed curves; the % refers to the signal ratio; further: potency means the concentration at half of the fitted maximal effect); details: HCT-116 p53RE-bla reporter, beta-lactamase FRET ratio, 16 h; activation: at 66 µM (top of the series) unless noted
# Summary of the method: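 Cells carrying a p53-responsive bla reporter are treated with test compounds for 16 h at 37 C; beta-lactamase activity is then detected with LiveBLAzer B/G FRET substrate after 2 h at room temperature.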
# [15] = target: 5-hydroxytryptamine receptor 2A (Homo sapiens) (UniProt P28223); assay: 5-hydroxytryptamine receptor 2A (HTR2A) small molecule agonists, cell-based qHTS assay (AID 1963587); details: HTR2A-CHO cells, calcium flux fluorescence, agonist mode; activation: at 76.8 µM (top of the series); further: on the % scale 0 is the no-effect control and ±100 the full control effect; nearly all actives have a fitted effect of over 30% in size
# Summary of the method: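 Kinetic calcium-flux fluorescence (2 min, 1 sec intervals) after compound addition in agonist mode. HTR2A-CHO cells were cultured 18 h, then dye-loaded 1 h at 37 C.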
smiles,measurement,setting,value
C=C(C)[C@H]1Cc2c(ccc3c2O[C@@H]2COc4cc(OC)c(OC)cc4[C@@H]2C3=O)O1,Potency,[1],active: 13.9 µM and active: 13.7 µM
same,Potency,[2],inactive
same,Potency,[3],"inconclusive: 1.04 µM [rising, full curve] and inconclusive: 408 nM [rising, full curve] and inconclusive: 707 nM [rising, full curve]"
same,Potency,[4],"inconclusive: 43.8 nM [fluorescent, full curve, poor fit] and inconclusive: 7.7 µM [fluorescent, partial curve] and inconclusive: 335 nM [fluorescent, full curve]"
same,"activity change, negative = inhibition",[5],inconclusive: -0.724%
same,Potency,[6],"inconclusive: 61.9 µM [inhibitor, partial curve]"
same,Potency,[7],inactive
c1ccc2c(c1)Nc1ccccc1S2,Potency,[1],active: 61.1 µM
same,Potency,[2],inactive
same,Potency,[8],"inconclusive: 51.3 µM [fluorescent, single point]"
same,Potency,[9],inactive
same,Potency,[3],"inconclusive: 646 nM [cytotoxic, partial curve, poor fit]"
same,Potency,[4],inconclusive: 77 µM
same,Potency,[5],inconclusive: 68.6 µM
same,"activity change, negative = inhibition",[10],inconclusive: -34.3%
same,Potency,[6],"inconclusive: 1.09 µM [inhibitor, full curve, poor fit] and inconclusive: 33.5 µM [inhibitor]"
same,Potency,[11],"inconclusive: 1.9 nM [rising, full curve, poor fit]"
same,"activity change, negative = inhibition",[7],inconclusive: 6.94%
O=[N+]([O-])c1ccccc1,Potency,[12],inactive
same,Potency,[6],inactive
same,activation,[11],inconclusive: 32.3%
COP(=S)(OC)Oc1cc(Cl)c(Br)cc1Cl,Potency,[1],"inconclusive: 68.6 µM [activator, single point]"
same,Potency,[8],"inconclusive: 0.576 µM [fluorescent, full curve]"
same,Potency,[13],"inconclusive: 1.02 µM [fluorescent, full curve]"
same,Potency,[9],active: 45.8 µM
same,Potency,[14],"inconclusive: 18.2 µM [fluorescent, single point]"
same,Potency,[15],inactive
same,Potency,[4],"inconclusive: 61.1 µM [rising, single point]"
